Source: PMC9073595, “Synthesis, human topoisomerase IIα inhibitory properties and molecular modeling studies of anti-proliferative curcumin mimics” (RSC Advances, 2019)

What was measured:
Assay type in all cases: cell-based, human
[1] = tested on: A431 (squamous skin) carcinoma cell line; experiment: MTT anti-proliferative assay, A431; details: IC50 in normal cell (RPE1)/IC50 in cancer cell (A431)
[2] = tested on: MCF7 (breast) carcinoma cell line; experiment: MTT anti-proliferative assay, MCF7; details: IC50 in normal cell (RPE1)/IC50 in cancer cell (MCF7)
[3] = tested on: HCT116 (colon) carcinoma cell line; experiment: MTT anti-proliferative assay, HCT116; details: IC50 in normal cell (RPE1)/IC50 in cancer cell (HCT116)

SMILES | therapeutic index, A431 [1] | therapeutic index, MCF7 [2] | therapeutic index, HCT116 [3]
O=C1/C(=C/c2ccccc2)CN(C(=O)Nc2ccccc2)C/C1=C\c1ccccc1 [Compound 24, 3,5-Di[(E)-benzylidene]-4-oxo-N-phenylpiperidine-1-carboxamide] | 6.68 | 9.09 | 15.40
COc1ccc(NC(=O)N2C/C(=C\c3ccc(Cl)cc3)C(=O)/C(=C/c3ccc(Cl)cc3)C2)cc1 [Compound 31, 3,5-Bis[(E)-4-chlorobenzylidene]-N-(4-methoxyphenyl)-4-oxopiperidine-1-carboxamide] | 6.05 | 5.21 | 7.28
COc1ccc(NC(=O)N2C/C(=C\c3ccc(C)cc3)C(=O)/C(=C/c3ccc(C)cc3)C2)cc1 [Compound 40, N-(4-Methoxyphenyl)-3,5-bis[(E)-4-methylbenzylidene]-4-oxopiperidine-1-carboxamide] | < 10.20 | < 9.80 | < 18.32
Cc1ccc(/C=C2\CN(C(=O)NCc3ccccc3)C/C(=C\c3ccc(C)cc3)C2=O)cc1 [Compound 42, N-Benzyl-3,5-bis[(E)-4-methylbenzylidene]-4-oxopiperidine-1-carboxamide] | 5.37 | 9.58 | 2.04
COc1ccc(NC(=O)N2C/C(=C\c3ccc(F)cc3)C(=O)/C(=C/c3ccc(F)cc3)C2)cc1 [Compound 36, 3,5-Bis[(E)-4-fluorobenzylidene]-N-(4-methoxyphenyl)-4-oxopiperidine-1-carboxamide] | 7.22 | 5.53 | 15.26
COc1ccc(/C=C2\CN(C(=O)NCc3ccccc3)C/C(=C\c3ccc(OC)cc3)C2=O)cc1 [Compound 47, N-Benzyl-3,5-bis[(E)-4-methoxybenzylidene]-4-oxopiperidine-1-carboxamide] | < 6.27 | < 10.22 | < 38.76
O=C1/C(=C/c2ccc(F)cc2)CN(C(=O)Nc2ccc(Cl)cc2)C/C1=C\c1ccc(F)cc1 [Compound 35, N-(4-Chlorophenyl)-3,5-bis[(E)-4-fluorobenzylidene]-4-oxopiperidine-1-carboxamide] | 6.88 | 6.07 | 14.75
COc1ccc(NC(=O)N2C/C(=C\c3ccccc3)C(=O)/C(=C/c3ccccc3)C2)cc1 [Compound 26, 3,5-Di[(E)-benzylidene]-N-(4-methoxyphenyl)-4-oxopiperidine-1-carboxamide] | 6.26 | 7.15 | 12.39
Cc1ccc(/C=C2\CN(C(=O)Nc3ccccc3)C/C(=C\c3ccc(C)cc3)C2=O)cc1 [Compound 39, 3,5-Bis[(E)-4-methylbenzylidene]-4-oxo-N-phenylpiperidine-1-carboxamide] | < 19.46 | < 12.63 | < 34.72
O=C1/C(=C/c2ccc(F)cc2)CN(C(=O)Nc2ccccc2)C/C1=C\c1ccc(F)cc1 [Compound 34, 3,5-Bis[(E)-4-fluorobenzylidene]-4-oxo-N-phenylpiperidine-1-carboxamide] | 13.78 | 7.48 | 31.25
O=C1/C(=C/c2ccc(Cl)cc2)CN(C(=O)NCc2ccccc2)C/C1=C\c1ccc(Cl)cc1 [Compound 33, N-Benzyl-3,5-bis[(E)-4-chlorobenzylidene]-4-oxopiperidine-1-carboxamide] | 7.87 | 5.33 | 10.10
CCNC(=O)N1C/C(=C\c2ccc(F)cc2)C(=O)/C(=C/c2ccc(F)cc2)C1 [Compound 37, N-Ethyl-3,5-bis[(E)-4-fluorobenzylidene]-4-oxopiperidine-1-carboxamide] | 8.29 | 4.22 | 17.16
CCNC(=O)N1C/C(=C\c2cccs2)C(=O)/C(=C/c2cccs2)C1 [Compound 50, (3E,5E)-N-Ethyl-4-oxo-3,5-bis(thiophen-2-ylmethylene)piperidine-1-carboxamide] | 1.17 | 2.19 | 2.36
O=C1/C(=C/c2ccc(Cl)cc2)CN(C(=O)Nc2ccc(Cl)cc2)C/C1=C\c1ccc(Cl)cc1 [Compound 30, 3,5-Bis[(E)-4-chlorobenzylidene]-N-(4-chlorophenyl)-4-oxopiperidine-1-carboxamide] | 7.64 | 4.33 | 8.43
COc1ccc(/C=C2\CN(C(=O)Nc3ccc(OC)cc3)C/C(=C\c3ccc(OC)cc3)C2=O)cc1 [Compound 45, 3,5-Bis[(E)-4-methoxybenzylidene]-N-(4-methoxyphenyl)-4-oxopiperidine-1-carboxamide] | < 4.41 | < 8.55 | < 36.23
CCNC(=O)N1C/C(=C\c2ccc(OC)cc2)C(=O)/C(=C/c2ccc(OC)cc2)C1 [Compound 46, N-Ethyl-3,5-bis[(E)-4-methoxybenzylidene]-4-oxopiperidine-1-carboxamide] | 5.40 | 8.33 | 31.81
O=C1/C(=C/c2ccccc2)CN(C(=O)Nc2ccc(Cl)cc2)C/C1=C\c1ccccc1 [Compound 25, 3,5-Di[(E)-benzylidene]-N-(4-chlorophenyl)-4-oxopiperidine-1-carboxamide] | 8.79 | 10.56 | 21.43
COc1ccc(/C=C2\CN(C(=O)Nc3ccc(Cl)cc3)C/C(=C\c3ccc(OC)cc3)C2=O)cc1 [Compound 44, N-(4-Chlorophenyl)-3,5-bis[(E)-4-methoxybenzylidene]-4-oxopiperidine-1-carboxamide] | < 17.54 | < 11.99 | < 45.05
COc1ccc(/C=C2\CN(C(=O)Nc3ccccc3)C/C(=C\c3ccc(OC)cc3)C2=O)cc1 [Compound 43, 3,5-Bis[(E)-4-methoxybenzylidene]-4-oxo-N-phenylpiperidine-1-carboxamide] | < 18.38 | < 12.63 | < 40.65
O=C1/C(=C/c2ccc(Cl)cc2)CN(C(=O)Nc2ccccc2)C/C1=C\c1ccc(Cl)cc1 [Compound 29, 3,5-Bis[(E)-4-chlorobenzylidene]-4-oxo-N-phenylpiperidine-1-carboxamide] | 7.50 | 7.27 | 13.81
CCNC(=O)N1C/C(=C\c2ccc(Cl)cc2)C(=O)/C(=C/c2ccc(Cl)cc2)C1 [Compound 32, 3,5-Bis[(E)-4-chlorobenzylidene]-N-ethyl-4-oxopiperidine-1-carboxamide] | 9.21 | 5.14 | 11.61
O=C1/C(=C/c2ccc(F)cc2)CN(C(=O)NCc2ccccc2)C/C1=C\c1ccc(F)cc1 [Compound 38, N-Benzyl-3,5-bis[(E)-4-fluorobenzylidene]-4-oxopiperidine-1-carboxamide] | 8.17 | 5.03 | 19.41
O=C1/C(=C/c2ccccc2)CN(C(=O)NCc2ccccc2)C/C1=C\c1ccccc1 [Compound 28, N-Benzyl-3,5-di[(E)-benzylidene]-4-oxopiperidine-1-carboxamide] | 4.64 | 4.64 | 9.13
CCNC(=O)N1C/C(=C\c2ccc(C)cc2)C(=O)/C(=C/c2ccc(C)cc2)C1 [Compound 41, N-Ethyl-3,5-bis[(E)-4-methylbenzylidene]-4-oxopiperidine-1-carboxamide] | 7.16 | 4.13 | 8.37
COc1ccc(NC(=O)N2C/C(=C\c3cccs3)C(=O)/C(=C/c3cccs3)C2)cc1 [Compound 49, (3E,5E)-N-(4-Methoxyphenyl)-4-oxo-3,5-bis(thiophen-2-ylmethylene)piperidine-1-carboxamide] |  | < 2.03 | < 1.22
